This is an account of results in publication PMC6158211.

Protein sequences, listed by entry. Tags and fused reporters are not part of them. Residues count along the entry.
UniProt Q06481, residues 32-763: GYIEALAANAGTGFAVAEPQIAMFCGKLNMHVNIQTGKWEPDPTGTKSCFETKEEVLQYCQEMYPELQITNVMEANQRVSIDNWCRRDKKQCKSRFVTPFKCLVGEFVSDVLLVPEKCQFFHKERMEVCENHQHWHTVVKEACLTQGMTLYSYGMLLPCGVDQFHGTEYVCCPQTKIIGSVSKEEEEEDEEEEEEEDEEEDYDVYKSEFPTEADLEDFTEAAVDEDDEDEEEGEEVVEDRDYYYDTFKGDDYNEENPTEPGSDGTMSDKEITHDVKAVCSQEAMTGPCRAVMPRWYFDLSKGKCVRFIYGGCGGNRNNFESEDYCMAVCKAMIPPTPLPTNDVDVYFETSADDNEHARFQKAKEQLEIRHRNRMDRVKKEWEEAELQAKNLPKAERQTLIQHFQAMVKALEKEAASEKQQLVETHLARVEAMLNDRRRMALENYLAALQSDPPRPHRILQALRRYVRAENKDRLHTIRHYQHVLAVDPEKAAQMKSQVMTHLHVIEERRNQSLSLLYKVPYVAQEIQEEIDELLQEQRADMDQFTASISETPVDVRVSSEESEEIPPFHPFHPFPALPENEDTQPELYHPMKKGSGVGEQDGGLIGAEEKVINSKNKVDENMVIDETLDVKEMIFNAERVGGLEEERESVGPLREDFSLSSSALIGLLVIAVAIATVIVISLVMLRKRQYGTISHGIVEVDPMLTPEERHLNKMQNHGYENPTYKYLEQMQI
UniProt P36894, residues 24-532: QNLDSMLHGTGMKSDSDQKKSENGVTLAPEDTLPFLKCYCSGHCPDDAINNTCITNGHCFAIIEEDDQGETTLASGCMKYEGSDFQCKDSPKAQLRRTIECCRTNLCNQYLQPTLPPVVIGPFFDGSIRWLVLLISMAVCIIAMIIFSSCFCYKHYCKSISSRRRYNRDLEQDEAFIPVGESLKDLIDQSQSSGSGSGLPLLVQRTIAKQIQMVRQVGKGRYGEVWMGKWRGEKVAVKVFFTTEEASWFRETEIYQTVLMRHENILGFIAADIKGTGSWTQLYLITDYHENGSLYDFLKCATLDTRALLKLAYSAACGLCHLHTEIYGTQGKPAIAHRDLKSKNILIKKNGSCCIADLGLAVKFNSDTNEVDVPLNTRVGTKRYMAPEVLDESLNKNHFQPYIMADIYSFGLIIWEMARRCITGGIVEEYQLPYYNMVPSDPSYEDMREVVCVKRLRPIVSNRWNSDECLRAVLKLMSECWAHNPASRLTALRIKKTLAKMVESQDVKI
UniProt Q9UM47, residues 40-2321: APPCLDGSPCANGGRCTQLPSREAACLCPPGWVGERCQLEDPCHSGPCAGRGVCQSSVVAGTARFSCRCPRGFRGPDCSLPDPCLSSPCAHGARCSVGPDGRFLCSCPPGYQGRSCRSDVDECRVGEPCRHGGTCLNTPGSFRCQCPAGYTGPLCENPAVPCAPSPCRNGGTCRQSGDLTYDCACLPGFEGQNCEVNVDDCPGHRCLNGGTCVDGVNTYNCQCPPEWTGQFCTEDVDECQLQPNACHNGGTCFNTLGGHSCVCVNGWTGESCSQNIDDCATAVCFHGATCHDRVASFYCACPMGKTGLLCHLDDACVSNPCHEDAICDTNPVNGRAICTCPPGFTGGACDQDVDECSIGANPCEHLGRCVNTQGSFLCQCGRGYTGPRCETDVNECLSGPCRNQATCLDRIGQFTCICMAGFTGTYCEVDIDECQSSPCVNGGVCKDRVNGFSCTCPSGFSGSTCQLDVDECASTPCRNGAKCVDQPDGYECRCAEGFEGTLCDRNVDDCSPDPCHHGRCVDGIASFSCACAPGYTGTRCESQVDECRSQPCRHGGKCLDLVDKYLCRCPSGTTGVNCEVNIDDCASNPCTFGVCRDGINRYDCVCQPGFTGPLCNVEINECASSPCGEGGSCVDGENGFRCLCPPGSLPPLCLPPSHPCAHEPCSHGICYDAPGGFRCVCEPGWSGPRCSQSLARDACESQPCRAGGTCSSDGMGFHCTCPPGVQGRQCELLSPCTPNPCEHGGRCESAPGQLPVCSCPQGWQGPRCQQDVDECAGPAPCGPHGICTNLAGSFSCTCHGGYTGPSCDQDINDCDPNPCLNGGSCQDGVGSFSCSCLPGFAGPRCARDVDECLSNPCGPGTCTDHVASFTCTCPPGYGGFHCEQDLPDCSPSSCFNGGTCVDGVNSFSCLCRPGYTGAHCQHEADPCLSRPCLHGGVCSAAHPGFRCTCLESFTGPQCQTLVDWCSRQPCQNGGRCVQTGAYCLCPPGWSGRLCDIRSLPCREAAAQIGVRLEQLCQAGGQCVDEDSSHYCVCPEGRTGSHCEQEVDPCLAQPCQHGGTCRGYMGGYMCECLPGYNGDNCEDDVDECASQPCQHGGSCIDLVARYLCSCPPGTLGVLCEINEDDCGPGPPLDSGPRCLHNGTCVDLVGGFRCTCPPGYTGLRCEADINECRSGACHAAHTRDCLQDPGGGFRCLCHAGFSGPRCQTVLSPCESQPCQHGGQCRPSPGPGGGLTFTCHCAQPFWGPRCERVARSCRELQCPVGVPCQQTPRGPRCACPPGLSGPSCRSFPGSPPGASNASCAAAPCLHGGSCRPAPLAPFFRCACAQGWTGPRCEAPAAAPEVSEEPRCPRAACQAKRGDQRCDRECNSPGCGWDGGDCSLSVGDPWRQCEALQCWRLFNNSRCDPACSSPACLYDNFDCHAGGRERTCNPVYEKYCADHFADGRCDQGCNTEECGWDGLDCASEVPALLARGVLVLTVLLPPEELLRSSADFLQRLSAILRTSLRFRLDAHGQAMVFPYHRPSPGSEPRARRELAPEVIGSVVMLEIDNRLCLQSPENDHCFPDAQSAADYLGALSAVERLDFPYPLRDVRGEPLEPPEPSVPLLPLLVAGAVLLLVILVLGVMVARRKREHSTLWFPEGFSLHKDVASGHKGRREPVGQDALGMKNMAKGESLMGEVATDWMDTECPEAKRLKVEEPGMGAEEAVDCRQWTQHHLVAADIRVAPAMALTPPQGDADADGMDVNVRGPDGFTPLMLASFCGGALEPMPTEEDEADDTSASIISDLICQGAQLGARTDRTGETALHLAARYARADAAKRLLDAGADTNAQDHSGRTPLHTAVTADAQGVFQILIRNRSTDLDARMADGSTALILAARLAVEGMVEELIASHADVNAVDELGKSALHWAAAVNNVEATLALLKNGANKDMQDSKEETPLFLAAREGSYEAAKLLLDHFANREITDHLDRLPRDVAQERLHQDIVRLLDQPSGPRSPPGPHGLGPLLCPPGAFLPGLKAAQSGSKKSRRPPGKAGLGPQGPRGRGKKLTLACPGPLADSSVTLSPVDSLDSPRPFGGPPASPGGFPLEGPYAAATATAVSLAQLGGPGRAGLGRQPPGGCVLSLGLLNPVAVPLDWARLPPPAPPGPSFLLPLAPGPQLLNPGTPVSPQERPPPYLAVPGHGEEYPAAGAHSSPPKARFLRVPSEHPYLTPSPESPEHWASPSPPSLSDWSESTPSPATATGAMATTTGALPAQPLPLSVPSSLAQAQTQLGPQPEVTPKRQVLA
UniProt Q8N122: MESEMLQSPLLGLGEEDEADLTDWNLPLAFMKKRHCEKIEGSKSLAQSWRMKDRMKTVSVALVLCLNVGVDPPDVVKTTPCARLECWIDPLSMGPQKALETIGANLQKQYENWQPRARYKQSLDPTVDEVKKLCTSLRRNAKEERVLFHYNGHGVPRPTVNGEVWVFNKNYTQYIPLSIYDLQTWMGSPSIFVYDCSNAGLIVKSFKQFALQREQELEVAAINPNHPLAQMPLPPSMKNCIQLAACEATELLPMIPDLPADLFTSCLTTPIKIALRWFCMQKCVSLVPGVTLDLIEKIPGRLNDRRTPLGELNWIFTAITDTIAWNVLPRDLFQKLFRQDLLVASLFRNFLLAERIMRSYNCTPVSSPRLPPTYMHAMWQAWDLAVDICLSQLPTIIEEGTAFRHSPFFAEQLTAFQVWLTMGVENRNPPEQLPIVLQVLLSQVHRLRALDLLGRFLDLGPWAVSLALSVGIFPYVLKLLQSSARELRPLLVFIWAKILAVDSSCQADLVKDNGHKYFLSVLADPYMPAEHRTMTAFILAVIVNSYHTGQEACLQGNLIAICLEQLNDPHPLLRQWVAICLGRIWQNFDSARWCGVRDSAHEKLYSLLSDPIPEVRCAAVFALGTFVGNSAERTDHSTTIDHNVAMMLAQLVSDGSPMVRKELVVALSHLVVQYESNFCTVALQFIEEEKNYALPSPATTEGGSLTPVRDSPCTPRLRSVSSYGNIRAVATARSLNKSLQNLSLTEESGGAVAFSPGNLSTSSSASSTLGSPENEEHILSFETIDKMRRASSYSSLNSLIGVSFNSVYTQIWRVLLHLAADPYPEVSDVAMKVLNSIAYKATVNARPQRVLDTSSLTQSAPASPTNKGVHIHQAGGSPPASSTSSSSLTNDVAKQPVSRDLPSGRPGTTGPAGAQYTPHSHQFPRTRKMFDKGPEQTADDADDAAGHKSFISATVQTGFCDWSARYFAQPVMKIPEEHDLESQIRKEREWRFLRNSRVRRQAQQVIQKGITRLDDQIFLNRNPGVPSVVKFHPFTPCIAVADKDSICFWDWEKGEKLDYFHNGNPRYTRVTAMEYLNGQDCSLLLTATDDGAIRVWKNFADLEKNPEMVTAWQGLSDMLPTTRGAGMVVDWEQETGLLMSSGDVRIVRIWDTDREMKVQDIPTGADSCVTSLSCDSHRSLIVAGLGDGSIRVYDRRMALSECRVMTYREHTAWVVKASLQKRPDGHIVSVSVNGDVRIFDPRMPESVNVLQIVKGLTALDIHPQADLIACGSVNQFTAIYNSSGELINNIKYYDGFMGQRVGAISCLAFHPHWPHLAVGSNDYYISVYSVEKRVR
UniProt Q13885: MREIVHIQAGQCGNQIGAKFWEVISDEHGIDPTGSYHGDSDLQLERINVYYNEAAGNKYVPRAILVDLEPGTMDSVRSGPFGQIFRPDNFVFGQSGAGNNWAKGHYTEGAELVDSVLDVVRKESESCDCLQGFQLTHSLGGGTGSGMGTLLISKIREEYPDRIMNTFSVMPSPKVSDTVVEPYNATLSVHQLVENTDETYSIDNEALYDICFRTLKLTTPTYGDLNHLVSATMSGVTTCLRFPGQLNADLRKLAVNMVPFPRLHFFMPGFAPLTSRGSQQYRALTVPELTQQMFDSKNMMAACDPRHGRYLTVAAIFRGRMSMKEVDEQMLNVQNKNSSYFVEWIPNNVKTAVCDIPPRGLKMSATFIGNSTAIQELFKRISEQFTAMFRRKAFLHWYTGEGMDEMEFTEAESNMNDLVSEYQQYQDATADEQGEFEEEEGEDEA
UniProt P68371: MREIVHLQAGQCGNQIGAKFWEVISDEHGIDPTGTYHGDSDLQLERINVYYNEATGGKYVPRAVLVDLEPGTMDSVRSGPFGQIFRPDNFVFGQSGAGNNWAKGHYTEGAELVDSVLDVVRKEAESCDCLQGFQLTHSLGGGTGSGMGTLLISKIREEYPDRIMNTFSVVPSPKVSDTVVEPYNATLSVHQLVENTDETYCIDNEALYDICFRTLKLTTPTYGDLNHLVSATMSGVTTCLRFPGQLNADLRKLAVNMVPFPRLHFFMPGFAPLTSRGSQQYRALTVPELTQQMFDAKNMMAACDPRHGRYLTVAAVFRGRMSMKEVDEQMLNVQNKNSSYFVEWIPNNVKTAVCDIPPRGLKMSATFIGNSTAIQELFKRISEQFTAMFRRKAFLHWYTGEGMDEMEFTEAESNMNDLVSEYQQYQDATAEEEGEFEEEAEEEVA
UniProt Q9BUF5: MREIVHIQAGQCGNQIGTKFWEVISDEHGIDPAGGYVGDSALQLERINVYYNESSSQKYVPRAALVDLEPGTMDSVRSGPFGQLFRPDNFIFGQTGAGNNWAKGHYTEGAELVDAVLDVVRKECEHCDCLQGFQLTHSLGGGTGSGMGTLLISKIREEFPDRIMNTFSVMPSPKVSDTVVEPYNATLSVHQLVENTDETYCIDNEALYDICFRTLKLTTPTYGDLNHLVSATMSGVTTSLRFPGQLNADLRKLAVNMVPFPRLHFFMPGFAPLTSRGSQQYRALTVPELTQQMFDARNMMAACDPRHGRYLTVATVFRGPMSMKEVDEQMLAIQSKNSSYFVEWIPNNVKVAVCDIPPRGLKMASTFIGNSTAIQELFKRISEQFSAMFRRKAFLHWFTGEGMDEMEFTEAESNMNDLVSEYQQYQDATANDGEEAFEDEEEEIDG

These are yes or no findings as the source states them, for the method shown. Binding seen in cells or lysates may run through a third protein. Here binding means that the protein was enriched with, or labelled near, the bait; the list need not be complete. Tags and fused reporters may be left off the sequences shown.

In the test the target is T1, 3xFlag-UBL3 (wild-type ubiquitin-like 3 / membrane-anchored Ub-fold protein) (UniProt O95164).
T1 sequence: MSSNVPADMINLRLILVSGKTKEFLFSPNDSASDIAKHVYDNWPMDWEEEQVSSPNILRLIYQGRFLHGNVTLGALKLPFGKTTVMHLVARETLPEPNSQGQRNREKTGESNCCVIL
Kind of test: affinity purification with mass spectrometry; 3xFlag-UBL3, 3xFlag-UBL3C113/114A or 3xFlag empty vector expressed in MDA-MB-231 cells; 1% Triton buffer lysate, anti-Flag M2 affinity gel 16 h at 4 °C, on-bead digestion, LC-MS/MS with label-free quantification, triplicate pull-downs.
As to APLP2 (from UniProt Q06481 32-763), the binding entry is “binds”.

For the substance “BMPR1A (from UniProt P36894 24-532) (receptor)”, the binding result is recorded as “binds”. With “BMPR2 (from UniProt Q13873 27-1038) (receptor)”, the binding entry is “binds”.

Consider IKBKG (from UniProt Q9Y6K9 1-419), for which the binding entry is reported as “binds”. IRF3 (from UniProt Q14653 1-427): the binding result is given as “binds”. Consider KRAS (from UniProt P01116 1-189), for which the binding entry is on record as “binds”. Consider “NOTCH1 (from UniProt P46531 19-2555) (receptor)”, for which the binding result was “binds”. On to “NOTCH2 (from UniProt Q04721 26-2471) (receptor)”, for which the binding result is recorded as “binds”. Take “NOTCH3 (from UniProt Q9UM47 40-2321) (receptor)”: the binding entry was “binds”. Take NPC1 (from UniProt O15118 23-1278): the binding result is reported as “binds”. As to RPTOR (from UniProt Q8N122 1-1335), the binding result is on record as “binds”.

Regarding “TGFBR2 (from UniProt P37173 23-567) (receptor)”, the binding entry is “binds”. As to TUBA1C (from UniProt Q9BQE3 1-449), the binding result is given as “binds”. Consider TUBA4A (from UniProt P68366 1-448), for which the binding result was “binds”. As for TUBB2A (from UniProt Q13885 1-445), the entry is “binds”.

As for TUBB3 (from UniProt Q13509 1-450), the binding result is on record as “binds”.

TUBB4A (from UniProt P04350 1-444): the binding result was “binds”.

For TUBB4B (from UniProt P68371 1-445), the binding result was “binds”. Regarding TUBB6 (from UniProt Q9BUF5 1-446), the binding result is “binds”. As for TUBB8 (from UniProt Q3ZCM7 1-444), the binding entry is on record as “binds”. On to TUBB (from UniProt P07437 1-444), for which the binding entry is reported as “binds”.
